Holding throughout (assay): affinity purification with mass spectrometry
Assay [1] concerns the target RING1B (human (endogenous in HSJD-DIPG-007 and DIPGXIII)) (UniProt Q99496).
The target in assay [2] is EZH2 (human (endogenous in HSJD-DIPG-007)) (UniProt Q15910).
For assay [3], the target named is SUZ12 (human (endogenous in HSJD-DIPG-007)) (UniProt Q15022).
The target in assay [4] is PCGF4 (human (endogenous in HSJD-DIPG-007 and DIPGXIII)) (UniProt P35226).
Assay [5] shares this target. This is another data set of the same source.
For assay [6], the target named is RING1B (human (endogenous in HSJD-DIPG-007 and DIPGXIII)) (UniProt Q99496). This is another data set of the same source.

Amino acid sequences for entries named in this document (tags omitted).
UniProt Q99496: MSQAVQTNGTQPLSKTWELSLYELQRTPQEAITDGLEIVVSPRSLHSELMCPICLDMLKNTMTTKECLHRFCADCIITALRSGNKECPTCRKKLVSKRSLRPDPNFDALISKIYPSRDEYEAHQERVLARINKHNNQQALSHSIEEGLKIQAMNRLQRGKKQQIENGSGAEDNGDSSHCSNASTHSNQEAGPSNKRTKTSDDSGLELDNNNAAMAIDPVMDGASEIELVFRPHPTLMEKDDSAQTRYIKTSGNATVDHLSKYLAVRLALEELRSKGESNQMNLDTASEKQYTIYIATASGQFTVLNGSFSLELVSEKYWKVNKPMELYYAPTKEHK
UniProt Q15910: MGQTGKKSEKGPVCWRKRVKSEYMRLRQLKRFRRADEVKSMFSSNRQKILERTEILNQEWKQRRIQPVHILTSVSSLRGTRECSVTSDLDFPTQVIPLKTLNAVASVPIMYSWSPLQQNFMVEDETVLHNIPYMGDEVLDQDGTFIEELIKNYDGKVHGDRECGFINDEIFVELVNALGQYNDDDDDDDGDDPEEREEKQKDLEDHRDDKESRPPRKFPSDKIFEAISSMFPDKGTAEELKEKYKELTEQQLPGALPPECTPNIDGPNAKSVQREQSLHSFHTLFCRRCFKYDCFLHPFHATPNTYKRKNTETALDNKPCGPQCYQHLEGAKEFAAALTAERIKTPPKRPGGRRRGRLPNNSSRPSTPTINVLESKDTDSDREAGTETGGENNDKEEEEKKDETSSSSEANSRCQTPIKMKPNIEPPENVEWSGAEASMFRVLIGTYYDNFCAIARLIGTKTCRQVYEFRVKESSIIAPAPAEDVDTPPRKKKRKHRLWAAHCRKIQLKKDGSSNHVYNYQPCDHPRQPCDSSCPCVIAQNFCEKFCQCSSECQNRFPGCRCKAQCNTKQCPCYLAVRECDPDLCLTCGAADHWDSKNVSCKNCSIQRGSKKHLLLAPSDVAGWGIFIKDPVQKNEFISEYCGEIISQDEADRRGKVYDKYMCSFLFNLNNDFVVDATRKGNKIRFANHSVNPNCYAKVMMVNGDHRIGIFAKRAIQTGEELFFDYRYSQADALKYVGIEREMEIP
UniProt Q15022: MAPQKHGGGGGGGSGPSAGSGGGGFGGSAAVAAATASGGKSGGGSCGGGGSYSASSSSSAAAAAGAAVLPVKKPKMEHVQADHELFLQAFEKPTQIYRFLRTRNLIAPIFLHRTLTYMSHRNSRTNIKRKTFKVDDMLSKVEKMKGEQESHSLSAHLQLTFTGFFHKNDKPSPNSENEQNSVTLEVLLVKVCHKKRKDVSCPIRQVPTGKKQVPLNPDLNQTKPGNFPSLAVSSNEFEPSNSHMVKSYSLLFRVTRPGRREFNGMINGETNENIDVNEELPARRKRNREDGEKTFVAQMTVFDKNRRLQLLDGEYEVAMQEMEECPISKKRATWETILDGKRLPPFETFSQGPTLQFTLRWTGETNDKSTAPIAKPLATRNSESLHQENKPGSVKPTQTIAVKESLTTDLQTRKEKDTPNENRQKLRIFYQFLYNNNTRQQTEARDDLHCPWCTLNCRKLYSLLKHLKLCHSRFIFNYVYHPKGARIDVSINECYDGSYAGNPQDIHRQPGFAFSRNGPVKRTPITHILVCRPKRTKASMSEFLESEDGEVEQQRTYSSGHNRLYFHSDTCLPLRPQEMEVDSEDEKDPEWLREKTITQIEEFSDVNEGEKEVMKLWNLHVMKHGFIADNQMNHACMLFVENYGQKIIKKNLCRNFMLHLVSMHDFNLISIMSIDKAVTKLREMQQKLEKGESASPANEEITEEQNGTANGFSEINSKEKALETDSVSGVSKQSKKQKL
UniProt P35226: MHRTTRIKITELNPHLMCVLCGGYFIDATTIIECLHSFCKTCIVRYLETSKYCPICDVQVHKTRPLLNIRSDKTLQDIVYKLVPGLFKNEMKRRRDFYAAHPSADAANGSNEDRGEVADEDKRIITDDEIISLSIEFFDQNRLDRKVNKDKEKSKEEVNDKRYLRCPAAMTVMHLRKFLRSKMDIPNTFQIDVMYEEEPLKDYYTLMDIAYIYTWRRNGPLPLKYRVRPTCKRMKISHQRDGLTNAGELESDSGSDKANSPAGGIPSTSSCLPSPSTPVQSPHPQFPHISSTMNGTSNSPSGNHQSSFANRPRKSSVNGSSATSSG
UniProt Q86SE9: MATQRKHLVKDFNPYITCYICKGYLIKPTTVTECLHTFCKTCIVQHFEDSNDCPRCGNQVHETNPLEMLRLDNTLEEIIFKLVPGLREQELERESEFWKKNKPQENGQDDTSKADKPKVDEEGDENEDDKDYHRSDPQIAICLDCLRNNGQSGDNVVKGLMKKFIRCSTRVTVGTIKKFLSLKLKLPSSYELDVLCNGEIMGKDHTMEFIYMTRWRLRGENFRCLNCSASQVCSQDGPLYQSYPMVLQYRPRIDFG
UniProt A6NHQ4: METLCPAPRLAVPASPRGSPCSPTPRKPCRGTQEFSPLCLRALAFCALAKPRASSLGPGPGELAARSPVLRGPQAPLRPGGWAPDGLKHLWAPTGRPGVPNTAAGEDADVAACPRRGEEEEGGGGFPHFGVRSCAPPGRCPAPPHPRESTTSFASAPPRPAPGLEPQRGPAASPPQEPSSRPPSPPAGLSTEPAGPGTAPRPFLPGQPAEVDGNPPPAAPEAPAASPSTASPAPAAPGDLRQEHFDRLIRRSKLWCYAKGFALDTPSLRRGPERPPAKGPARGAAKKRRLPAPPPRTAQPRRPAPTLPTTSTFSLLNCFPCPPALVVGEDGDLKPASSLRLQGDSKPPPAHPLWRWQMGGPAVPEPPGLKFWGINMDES
UniProt Q9Y483: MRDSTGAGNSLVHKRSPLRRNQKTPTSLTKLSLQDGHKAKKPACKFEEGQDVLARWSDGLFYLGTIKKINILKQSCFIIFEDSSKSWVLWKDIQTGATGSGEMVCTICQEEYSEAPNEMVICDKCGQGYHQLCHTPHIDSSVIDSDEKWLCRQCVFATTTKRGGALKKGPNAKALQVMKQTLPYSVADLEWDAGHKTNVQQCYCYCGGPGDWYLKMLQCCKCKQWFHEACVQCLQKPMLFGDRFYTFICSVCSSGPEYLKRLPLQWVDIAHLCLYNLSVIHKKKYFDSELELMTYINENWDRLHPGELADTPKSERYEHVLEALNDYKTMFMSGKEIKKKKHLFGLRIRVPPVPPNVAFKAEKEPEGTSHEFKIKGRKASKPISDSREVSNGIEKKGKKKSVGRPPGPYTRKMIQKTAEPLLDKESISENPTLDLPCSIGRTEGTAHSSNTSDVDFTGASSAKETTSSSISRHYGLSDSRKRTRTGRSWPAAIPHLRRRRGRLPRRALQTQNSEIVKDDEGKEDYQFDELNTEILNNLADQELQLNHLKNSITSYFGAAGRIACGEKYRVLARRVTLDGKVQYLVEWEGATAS
UniProt Q14781: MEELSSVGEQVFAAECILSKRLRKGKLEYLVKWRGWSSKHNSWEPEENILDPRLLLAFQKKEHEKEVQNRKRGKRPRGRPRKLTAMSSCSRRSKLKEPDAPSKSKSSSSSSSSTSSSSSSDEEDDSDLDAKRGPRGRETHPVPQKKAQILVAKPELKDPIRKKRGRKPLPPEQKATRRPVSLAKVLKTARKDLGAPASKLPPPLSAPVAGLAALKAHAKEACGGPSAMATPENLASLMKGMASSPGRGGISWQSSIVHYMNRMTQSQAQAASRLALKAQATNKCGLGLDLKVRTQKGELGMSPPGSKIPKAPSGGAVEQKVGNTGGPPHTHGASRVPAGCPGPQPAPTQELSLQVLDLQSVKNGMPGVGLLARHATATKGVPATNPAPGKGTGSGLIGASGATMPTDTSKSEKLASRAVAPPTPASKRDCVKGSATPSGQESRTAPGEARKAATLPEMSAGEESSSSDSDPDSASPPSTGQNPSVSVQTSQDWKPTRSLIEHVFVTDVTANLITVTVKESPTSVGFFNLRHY
UniProt Q06587: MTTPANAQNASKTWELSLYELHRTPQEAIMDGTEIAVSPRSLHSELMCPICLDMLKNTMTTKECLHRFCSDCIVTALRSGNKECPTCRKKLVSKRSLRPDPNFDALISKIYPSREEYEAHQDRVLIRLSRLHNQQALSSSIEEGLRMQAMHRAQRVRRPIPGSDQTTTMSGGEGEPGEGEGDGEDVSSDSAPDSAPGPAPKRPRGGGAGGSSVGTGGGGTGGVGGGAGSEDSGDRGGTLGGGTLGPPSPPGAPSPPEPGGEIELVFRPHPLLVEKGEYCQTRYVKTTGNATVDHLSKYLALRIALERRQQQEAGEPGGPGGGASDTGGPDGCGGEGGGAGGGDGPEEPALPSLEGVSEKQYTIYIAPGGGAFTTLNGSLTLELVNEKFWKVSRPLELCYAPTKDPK
UniProt O43189: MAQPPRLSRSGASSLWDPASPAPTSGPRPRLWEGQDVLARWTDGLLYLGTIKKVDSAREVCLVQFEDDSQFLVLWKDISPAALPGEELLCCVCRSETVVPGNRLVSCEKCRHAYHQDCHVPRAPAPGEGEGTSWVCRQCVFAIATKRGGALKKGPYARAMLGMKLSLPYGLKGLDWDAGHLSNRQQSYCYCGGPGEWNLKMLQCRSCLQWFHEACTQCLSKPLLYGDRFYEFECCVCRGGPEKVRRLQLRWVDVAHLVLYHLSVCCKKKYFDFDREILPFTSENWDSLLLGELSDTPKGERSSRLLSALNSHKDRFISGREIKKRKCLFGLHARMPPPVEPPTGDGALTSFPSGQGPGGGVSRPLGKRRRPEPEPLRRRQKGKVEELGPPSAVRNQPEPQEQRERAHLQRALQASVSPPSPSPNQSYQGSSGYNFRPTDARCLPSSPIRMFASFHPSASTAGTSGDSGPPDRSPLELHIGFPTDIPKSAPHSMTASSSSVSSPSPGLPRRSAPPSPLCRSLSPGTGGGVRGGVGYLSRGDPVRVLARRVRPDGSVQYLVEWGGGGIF

The results in this text go back to publication doi:10.1101/2023.12.02.569451.

Like-named read-outs stand apart in the source and are kept apart here. Results are given in words; binding and its absence hold for the method and conditions named. Binding seen in cells or lysates may run through a third protein. A yes stands for co-enrichment or nearness to the bait. Other partners may have been found.

Turning to PCGF5 (from UniProt Q86SE9 1-256), in assay [1], the binding result is listed as “binds”.

EPOP (from UniProt A6NHQ4 1-379): the binding result in assay [2] is given as “binds”.

Take MTF2 (from UniProt Q9Y483 1-593): the binding entry in assay [3] and in assay [2] was “binds” each time.

In the case of CBX2 (from UniProt Q14781 1-532), the binding result in assay [4] is reported as “binds”.

As to RING1A (from UniProt Q06587 1-406), in assay [4], the binding entry was “binds”.

With PHF1 (from UniProt O43189 1-567), the binding entry in assay [3] and in assay [2] was “binds” throughout.

B1: PHC2 (protein, UniProt Q8IXK0 1-858)
chain: MENELPVPHTSSSACATSSTSGASSSSGCNNSSSGGSGRPTGPQISVYSGIPDRQTVQVIQQALHRQPSTAAQYLQQMYAAQQQHLMLQTAALQQQHLSSAQLQSLAAVQQASLVSNRQGSTSGSNVSAQAPAQSSSINLAASPAAAQLLNRAQSVNSAAASGIAQQAVLLGNTSSPALTASQAQMYLRAQMLIFTPTATVATVQPELGTGSPARPPTPAQVQNLTLRTQQTPAAAASGPTPTQPVLPSLALKPTPGGSQPLPTPAQSRNTAQASPAGAKPGIADSVMEPHKKGDGNSSVPGSMEGRAGLSRTVPAVAAHPLIAPAYAQLQPHQLLPQPSSKHLQPQFVIQQQPQPQQQQPPPQQSRPVLQAEPHPQLASVSPSVALQPSSEAHAMPLGPVTPALPLQCPTANLHKPGGSQQCHPPTPDTGPQNGHPEGVPHTPQRRFQHTSAVILQLQPASPPQQCVPDDWKEVAPGEKSVPETRSGPSPHQQAIVTAMPGGLPVPTSPNIQPSPAHETGQGIVHALTDLSSPGMTSGNGNSASSIAGTAPQNGENKPPQAIVKPQILTHVIEGFVIQEGAEPFPVGRSSLLVGNLKKKYAQGFLPEKLPQQDHTTTTDSEMEEPYLQESKEEGAPLKLKCELCGRVDFAYKFKRSKRFCSMACAKRYNVGCTKRVGLFHSDRSKLQKAGAATHNRRRASKASLPPLTKDTKKQPTGTVPLSVTAALQLTHSQEDSSRCSDNSSYEEPLSPISASSSTSRRRQGQRDLELPDMHMRDLVGMGHHFLPSEPTKWNVEDVYEFIRSLPGCQEIAEEFRAQEIDGQALLLLKEDHLMSAMNIKLGPALKIYARISMLKDS
On to B1, for which the binding result in assay [5] and in assay [6] was “binds” throughout.

B2: PCGF2 (protein, UniProt P35227 1-344)
chain: MHRTTRIKITELNPHLMCALCGGYFIDATTIVECLHSFCKTCIVRYLETNKYCPMCDVQVHKTRPLLSIRSDKTLQDIVYKLVPGLFKDEMKRRRDFYAAYPLTEVPNGSNEDRGEVLEQEKGALSDDEIVSLSIEFYEGARDRDEKKGPLENGDGDKEKTGVRFLRCPAAMTVMHLAKFLRNKMDVPSKYKVEVLYEDEPLKEYYTLMDIAYIYPWRRNGPLPLKYRVQPACKRLTLATVPTPSEGTNTSGASECESVSDKAPSPATLPATSSSLPSPATPSHGSPSSHGPPATHPTSPTPPSTASGATTAANGGSLNCLQTPSSTSRGRKMTVNGAPVPPLT
Take B2: the binding result in assay [6] is recorded as “binds”.

B3: PCGF3 (protein, UniProt Q3KNV8 1-242)
chain: MLTRKIKLWDINAHITCRLCSGYLIDATTVTECLHTFCRSCLVKYLEENNTCPTCRIVIHQSHPLQYIGHDRTMQDIVYKLVPGLQEAEMRKQREFYHKLGMEVPGDIKGETCSAKQHLDSHRNGETKADDSSNKEAAEEKPEEDNDYHRSDEQVSICLECNSSKLRGLKRKWIRCSAQATVLHLKKFIAKKLNLSSFNELDILCNEEILGKDHTLKFVVVTRWRFKKAPLLLHYRPKMDLL
As for B3, in assay [6], the binding entry is listed as “binds”.

B4: CBX4 (protein, UniProt O00257 1-560)
chain: MELPAVGEHVFAVESIEKKRIRKGRVEYLVKWRGWSPKYNTWEPEENILDPRLLIAFQNRERQEQLMGYRKRGPKPKPLVVQVPTFARRSNVLTGLQDSSTDNRAKLDLGAQGKGQGHQYELNSKKHHQYQPHSKERAGKPPPPGKSGKYYYQLNSKKHHPYQPDPKMYDLQYQGGHKEAPSPTCPDLGAKSHPPDKWAQGAGAKGYLGAVKPLAGAAGAPGKGSEKGPPNGMMPAPKEAVTGNGIGGKMKIVKNKNKNGRIVIVMSKYMENGMQAVKIKSGEVAEGEARSPSHKKRAADERHPPADRTFKKAAGAEEKKVEAPPKRREEEVSGVSDPQPQDAGSRKLSPTKEAFGEQPLQLTTKPDLLAWDPARNTHPPSHHPHPHPHHHHHHHHHHHHAVGLNLSHVRKRCLSETHGEREPCKKRLTARSISTPTCLGGSPAAERPADLPPAAALPQPEVILLDSDLDEPIDLRCVKTRSEAGEPPSSLQVKPETPASAAVAVAAAAAPTTTAEKPPAEAQDEPAESLSEFKPFFGNIIITDVTANCLTVTFKEYVTV
Consider B4, for which the binding entry in assay [5] and in assay [6] was “binds” each time.

B5: PHC1 (protein, UniProt P78364 1-1004)
chain: METESEQNSNSTNGSSSSGGSSRPQIAQMSLYERQAVQALQALQRQPNAAQYFHQFMLQQQLSNAQLHSLAAVQQATIAASRQASSPNTSTTQQQTTTTQASINLATTSAAQLISRSQSVSSPSATTLTQSVLLGNTTSPPLNQSQAQMYLRPQLGNLLQVNRTLGRNVPLASQLILMPNGAVAAVQQEVPSAQSPGVHADADQVQNLAVRNQQASAQGPQMQGSTQKAIPPGASPVSSLSQASSQALAVAQASSGATNQSLNLSQAGGGSGNSIPGSMGPGGGGQAHGGLGQLPSSGMGGGSCPRKGTGVVQPLPAAQTVTVSQGSQTEAESAAAKKAEADGSGQQNVGMNLTRTATPAPSQTLISSATYTQIQPHSLIQQQQQIHLQQKQVVIQQQIAIHHQQQFQHRQSQLLHTATHLQLAQQQQQQQQQQQQQQQPQATTLTAPQPPQVPPTQQVPPSQSQQQAQTLVVQPMLQSSPLSLPPDAAPKPPIPIQSKPPVAPIKPPQLGAAKMSAAQQPPPHIPVQVVGTRQPGTAQAQALGLAQLAAAVPTSRGMPGTVQSGQAHLASSPPSSQAPGALQECPPTLAPGMTLAPVQGTAHVVKGGATTSSPVVAQVPAAFYMQSVHLPGKPQTLAVKRKADSEEERDDVSTLGSMLPAKASPVAESPKVMDEKSSLGEKAESVANVNANTPSSELVALTPAPSVPPPTLAMVSRQMGDSKPPQAIVKPQILTHIIEGFVIQEGAEPFPVGCSQLLKESEKPLQTGLPTGLTENQSGGPLGVDSPSAELDKKANLLKCEYCGKYAPAEQFRGSKRFCSMTCAKRYNVSCSHQFRLKRKKMKEFQEANYARVRRRGPRRSSSDIARAKIQGKCHRGQEDSSRGSDNSSYDEALSPTSPGPLSVRAGHGERDLGNPNTAPPTPELHGINPVFLSSNPSRWSVEEVYEFIASLQGCQEIAEEFRSQEIDGQALLLLKEEHLMSAMNIKLGPALKICAKINVLKET
Consider B5, for which the binding entry in assay [5] and in assay [6] was “binds” each time.

B6: CBX6 (protein, UniProt O95503 1-412)
chain: MELSAVGERVFAAESIIKRRIRKGRIEYLVKWKGWAIKYSTWEPEENILDSRLIAAFEQKERERELYGPKKRGPKPKTFLLKARAQAEALRISDVHFSVKPSASASSPKLHSSAAVHRLKKDIRRCHRMSRRPLPRPDPQGGSPGLRPPISPFSETVRIINRKVKPREPKRNRIILNLKVIDKGAGGGGAGQGAGALARPKVPSRNRVIGKSKKFSESVLRTQIRHMKFGAFALYKPPPAPLVAPSPGKAEASAPGPGLLLAAPAAPYDARSSGSSGCPSPTPQSSDPDDTPPKLLPETVSPSAPSWREPEVLDLSLPPESAATSKRAPPEVTAAAGPAPPTAPEPAGASSEPEAGDWRPEMSPCSNVVVTDVTSNLLTVTIKEFCNPEDFEKVAAGVAGAAGGGGSIGASK
In the case of B6, the binding entry in assay [5] and in assay [6] was “binds” each time.

B7: PCGF6 (protein, UniProt Q9BYE7 1-350)
chain: MEGVAVVTAGSVGAAKTEGAAALPPPPPVSPPALTPAPAAGEEGPAPLSETGAPGCSGSRPPELEPERSLGRFRGRFEDEDEELEEEEELEEEEEEEEEDMSHFSLRLEGGRQDSEDEEERLINLSELTPYILCSICKGYLIDATTITECLHTFCKSCIVRHFYYSNRCPKCNIVVHQTQPLYNIRLDRQLQDIVYKLVINLEEREKKQMHDFYKERGLEVPKPAVPQPVPSSKGRSKKVLESVFRIPPELDMSLLLEFIGANEGTGHFKPLEKKFVRVSGEATIGHVEKFLRRKMGLDPACQVDIICGDHLLEQYQTLREIRRAIGDAAMQDGLLVLHYGLVVSPLKIT
On to B7, for which the binding result in assay [6] was “binds”.

B8: PHC3 (protein, UniProt Q8NDX5 1-983)
chain: MDTEPNPGTSSVSTTTSSTTTTTITTSSSRMQQPQISVYSGSDRHAVQVIQQALHRPPSSAAQYLQQMYAAQQQHLMLHTAALQQQHLSSSQLQSLAAVQASLSSGRPSTSPTGSVTQQSSMSQTSINLSTSPTPAQLISRSQASSSTSGSITQQTMLLGSTSPTLTASQAQMYLRAQMLIFTPATTVAAVQSDIPVVSSSSSSSCQSAATQVQNLTLRSQKLGVLSSSQNGPPKSTSQTQSLTICHNKTTVTSSKISQRDPSPESNKKGESPSLESRSTAVTRTSSIHQLIAPASYSPIQPHSLIKHQQIPLHSPPSKVSHHQLILQQQQQQIQPITLQNSTQDPPPSQHCIPLQNHGLPPAPSNAQSQHCSPIQSHPSPLTVSPNQSQSAQQSVVVSPPPPHSPSQSPTIIIHPQALIQPHPLVSSALQPGPNLQQSTANQVQATAQLNLPSHLPLPASPVVHIGPVQQSALVSPGQQIVSPSHQQYSSLQSSPIPIASPPQMSTSPPAQIPPLPLQSMQSLQVQPEILSQGQVLVQNALVSEEELPAAEALVQLPFQTLPPPQTVAVNLQVQPPAPVDPPVVYQVEDVCEEEMPEESDECVRMDRTPPPPTLSPAAITVGRGEDLTSEHPLLEQVELPAVASVSASVIKSPSDPSHVSVPPPPLLLPAATTRSNSTSMHSSIPSIENKPPQAIVKPQILTHVIEGFVIQEGLEPFPVSRSSLLIEQPVKKRPLLDNQVINSVCVQPELQNNTKHADNSSDTEMEDMIAEETLEEMDSELLKCEFCGKMGYANEFLRSKRFCTMSCAKRYNVSCSKKFALSRWNRKPDNQSLGHRGRRPSGPDGAAREHILRQLPITYPSAEEDLASHEDSVPSAMTTRLRRQSERERERELRDVRIRKMPENSDLLPVAQTEPSIWTVDDVWAFIHSLPGCQDIADEFRAQEIDGQALLLLKEDHLMSAMNIKLGPALKICARINSLKES
For the molecule B8, the binding result in assay [5] and in assay [6] was “binds” each time.
